Data source: PubChem BioAssay AID1224828 (NIAID, 2016)
Purpose: 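Regulators linking TLR4 signalling to p65 nuclear translocation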 (primary screen). Cell system: mouse RAW264.7 G9 macrophage reporter cells (GFP-p65, Tnf promoter-mCherry). Reagent: siRNA pool against mouse genes, 100 nM. Timing: 2 days siRNA transfection, then 40 min LPS before fixation. Treatment: LPS (Salmonella minnesota R595) at 10 ng/ml. Detection: 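Microscopy ratio of nuclear to perinuclear-ring GFP-p65 signal, scaled to the plate median; gene score is the average of two replicate robust z-scores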. Direction: p65 translocation robust z-score: higher = more nuclear NF-kappaB p65 after LPS than the plate median; nuclear/cytoplasmic p65 ratio: higher = more nuclear NF-kappaB p65. Call rule: 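Active if robust z is above 3.3 (negative regulators) or below -1.56, the Tlr4 control median (positive regulators); activity score 50 or more; control wells not called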. Calls: active = hit (p65 shift raised or lowered); inactive = no clear change.
The deposit covers about 17,000 reagents; below is an unselected part. 762 of all reagents (4.5%) count as active. 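Active calls include both raised and lowered p65 entry, mostly lowered; wells with fewer than 50 cells lack a z-score.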 The raw values are shown without normalisation. Reagents against one gene are numbered here. Reagent sequences are not shown.

gene symbol | reagent no. | p65 translocation robust z-score | nuclear/cytoplasmic p65 ratio, rep 1 | nuclear/cytoplasmic p65 ratio, rep 2 | low cell count flag | Outcome
Rbm4 (RNA binding motif protein 4) | 1 | 1.86 | 1.64 | 1.45 | enough cells to score | inactive
Fnta (farnesyltransferase, CAAX box, alpha) | 1 | – | 1.25 | 1.29 | fewer than 50 cells per well; well left out of scoring | inactive
Synrg (synergin, gamma) | 1 | 1.22 | 1.84 | 1.77 | enough cells to score | inactive
Rom1 (rod outer segment membrane protein 1) | 1 | -2.37 | 1.18 | 1.09 | enough cells to score | active
Efna1 (ephrin A1) | 1 | 0.13 | 1.49 | 1.38 | enough cells to score | inactive
A630026L20 | 1 | -0.93 | 1.23 | 1.43 | enough cells to score | inactive
Or13l2 (olfactory receptor family 13 subfamily L member 2) | 1 | 0.33 | 1.5 | 1.69 | enough cells to score | inactive
Scara5 (scavenger receptor class A, member 5) | 1 | 0.81 | 1.47 | 1.39 | enough cells to score | inactive
Guca2a (guanylate cyclase activator 2a (guanylin)) | 1 | -1.11 | 1.56 | 1.4 | enough cells to score | inactive
Msi2 (musashi RNA-binding protein 2) | 1 | 0.79 | 1.9 | 1.72 | enough cells to score | inactive
Terf1 (telomeric repeat binding factor 1) | 1 | -0.01 | 1.49 | 1.54 | enough cells to score | inactive
Slc60a2c | 1 | 1.63 | 1.85 | 2.08 | enough cells to score | inactive
Prss46 (serine protease 46) | 1 | -0.23 | 1.31 | 1.44 | enough cells to score | inactive
Klf2 (Kruppel-like transcription factor 2 (lung)) | 1 | -1.08 | 1.29 | 1.27 | enough cells to score | inactive
D830013H23Rik (RIKEN cDNA D830013H23 gene) | 1 | -1.65 | 1.35 | 1.29 | enough cells to score | active
Smco4 (single-pass membrane protein with coiled-coil domains 4) | 1 | -0.69 | 1.38 | 1.83 | enough cells to score | inactive
Rps29 (ribosomal protein S29) | 1 | -0.69 | 1.39 | 1.52 | enough cells to score | inactive
Sh3glb2 (SH3-domain GRB2-like endophilin B2) | 1 | -0.29 | 1.34 | 1.25 | enough cells to score | inactive
Atp6v0d1 (ATPase, H+ transporting, lysosomal V0 subunit D1) | 1 | – | 1.31 | 1.59 | fewer than 50 cells per well; well left out of scoring | inactive
Rpa3 (replication protein A3) | 1 | -0.01 | 1.31 | 1.31 | enough cells to score | inactive
Il15 (interleukin 15) | 1 | 0.17 | 1.33 | 1.52 | enough cells to score | inactive
Gnptg (N-acetylglucosamine-1-phosphotransferase, gamma subunit) | 1 | 1.46 | 1.31 | 1.79 | enough cells to score | inactive
Egln1 (egl-9 family hypoxia-inducible factor 1) | 1 | -1.48 | 1.26 | 1.18 | enough cells to score | inactive
Raet1a (retinoic acid early transcript 1, alpha) | 1 | – | 1.33 | 1.02 | fewer than 50 cells per well; well left out of scoring | inactive
Fbxw21 (F-box and WD-40 domain protein 21) | 1 | 1.65 | 1.6 | 1.57 | enough cells to score | inactive
Vnn1 (vanin 1) | 1 | 0.87 | 1.55 | 1.7 | enough cells to score | inactive
Zkscan5 (zinc finger with KRAB and SCAN domains 5) | 1 | 0.04 | 1.5 | 1.53 | enough cells to score | inactive
Rbfa (ribosome binding factor A) | 1 | 1.18 | 1.6 | 1.71 | enough cells to score | inactive
Sorl1 (sortilin-related receptor, LDLR class A repeats-containing) | 1 | -1.1 | 1.39 | 1.39 | enough cells to score | inactive
Ksr2 (kinase suppressor of ras 2) | 1 | -0.12 | 1.67 | 1.24 | enough cells to score | inactive
Agfg1 (ArfGAP with FG repeats 1) | 1 | -0.01 | 1.45 | 1.36 | enough cells to score | inactive
Rnase6 (ribonuclease, RNase A family, 6) | 1 | 0.67 | 1.43 | 1.29 | enough cells to score | inactive
Ndst4 (N-deacetylase/N-sulfotransferase (heparin glucosaminyl) 4) | 1 | 0.42 | 1.53 | 1.37 | enough cells to score | inactive
Gpr88 (G-protein coupled receptor 88) | 1 | -0.73 | 1.36 | 1.52 | enough cells to score | inactive
Flt4 (FMS-like tyrosine kinase 4) | 1 | -0.35 | 1.63 | 1.34 | enough cells to score | inactive
Zfp593 (zinc finger protein 593) | 1 | – | 1.15 | 1.4 | fewer than 50 cells per well; well left out of scoring | inactive
Cdc73 | 1 | 0.86 | 1.81 | 1.68 | enough cells to score | inactive
Gpi1 (glucose-6-phosphate isomerase 1) | 1 | -0.19 | 1.38 | 1.38 | enough cells to score | inactive
Tcf23 (transcription factor 23) | 1 | – | 1.26 | 1.08 | fewer than 50 cells per well; well left out of scoring | inactive
D130079A08Rik (RIKEN cDNA D130079A08 gene) | 1 | 0.6 | 1.72 | 1.82 | enough cells to score | inactive
Cmas (cytidine monophospho-N-acetylneuraminic acid synthetase) | 1 | -0.44 | 1.49 | 1.75 | enough cells to score | inactive
Zfp326 (zinc finger protein 326) | 1 | 0.96 | 1.55 | 1.35 | enough cells to score | inactive
2310057M21Rik (RIKEN cDNA 2310057M21 gene) | 1 | – | 1.74 | 2.98 | fewer than 50 cells per well; well left out of scoring | inactive
Cyb561a3 (cytochrome b561 family, member A3) | 1 | – | 1.57 | 1.15 | fewer than 50 cells per well; well left out of scoring | inactive
Lime1 (Lck interacting transmembrane adaptor 1) | 1 | 1.27 | 1.57 | 1.38 | enough cells to score | inactive
Osbpl10 (oxysterol binding protein-like 10) | 1 | – | 1.31 | 1.42 | fewer than 50 cells per well; well left out of scoring | inactive
Osbpl10 (oxysterol binding protein-like 10) | 2 | 0.98 | 1.74 | 1.94 | enough cells to score | inactive
Clip2 (CAP-GLY domain containing linker protein 2) | 1 | -0.27 | 1.38 | 1.4 | enough cells to score | inactive
Fam222b (family with sequence similarity 222, member B) | 1 | 0.02 | 1.54 | 1.9 | enough cells to score | inactive
Serping1 (serine (or cysteine) peptidase inhibitor, clade G, member 1) | 1 | -0.07 | 1.53 | 1.56 | enough cells to score | inactive
Tnfrsf26 (tumor necrosis factor receptor superfamily, member 26) | 1 | -1.26 | 1.16 | 1.05 | enough cells to score | inactive
F11r (F11 receptor) | 1 | -1.28 | 1.26 | 1.23 | enough cells to score | inactive
Nr4a3 (nuclear receptor subfamily 4, group A, member 3) | 1 | -1.13 | 1.31 | 1.25 | enough cells to score | inactive
G0s2 (G0/G1 switch gene 2) | 1 | -1.68 | 1.33 | 1.34 | enough cells to score | active
Or4c102 (olfactory receptor family 4 subfamily C member 102) | 1 | -0.66 | 1.59 | 1.45 | enough cells to score | inactive
Csrp2 (cysteine and glycine-rich protein 2) | 1 | -0.58 | 1.49 | 1.69 | enough cells to score | inactive
Larp4b (La ribonucleoprotein 4B) | 1 | -0.22 | 1.46 | 1.32 | enough cells to score | inactive
Map6 (microtubule-associated protein 6) | 1 | -2.86 | 1.28 | 1.19 | enough cells to score | active
Nppc (natriuretic peptide type C) | 1 | 1.83 | 2.04 | 1.76 | enough cells to score | inactive

Entries listed so far whose gene name starts with R or r (7):
gene symbol | reagent no. | p65 translocation robust z-score | nuclear/cytoplasmic p65 ratio, rep 1 | nuclear/cytoplasmic p65 ratio, rep 2 | low cell count flag | Outcome
Rbm4 (RNA binding motif protein 4) | 1 | 1.86 | 1.64 | 1.45 | enough cells to score | inactive
Rom1 (rod outer segment membrane protein 1) | 1 | -2.37 | 1.18 | 1.09 | enough cells to score | active
Rps29 (ribosomal protein S29) | 1 | -0.69 | 1.39 | 1.52 | enough cells to score | inactive
Rpa3 (replication protein A3) | 1 | -0.01 | 1.31 | 1.31 | enough cells to score | inactive
Raet1a (retinoic acid early transcript 1, alpha) | 1 | – | 1.33 | 1.02 | fewer than 50 cells per well; well left out of scoring | inactive
Rbfa (ribosome binding factor A) | 1 | 1.18 | 1.6 | 1.71 | enough cells to score | inactive
Rnase6 (ribonuclease, RNase A family, 6) | 1 | 0.67 | 1.43 | 1.29 | enough cells to score | inactive
